Assay results: patent publication US20250221936A1, “ENGINEERED HEMICHANNELS, ENGINEERED VESICLES, AND USES THEREOF” (VIRGINIA TECH INTELLECTUAL PROPERTIES, INC., priority 2018, published 2025)
“Also recorded” adds a separate entry of the source. For part of these data: Not every detail of the peptide structures is certain; ends, links or a residue may be inferred. Some entries share one result that the patent states for a list of compounds. No end group written: not given here.

Sequences of proteins named here, by UniProt entry; tags and fusion partners are left off. Residues count along the entry.
UniProt P08050, 255-382: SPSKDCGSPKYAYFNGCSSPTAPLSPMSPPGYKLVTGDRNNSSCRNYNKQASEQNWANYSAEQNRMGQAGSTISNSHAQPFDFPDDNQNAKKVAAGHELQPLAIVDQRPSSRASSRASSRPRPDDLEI

Legend:
[1] = system: adult mouse hearts; experiment: Langendorff ischemia-reperfusion (I/R) injury, LV contractility; conditions: for recovery of LV contractile function: treated for 20 minutes, higher than vehicle control or inactive peptide control
Procedure: Male, 3-month-old, body weight 25±5 g C57BL/6 mice were used for this study and obtained from Charles River. Animals were randomly assigned to experimental groups and Left ventricular (LV) function was measured and myocardial ischemia-reperfusion injury (I/R) was induced as previously described^23. Briefly, 15 minutes after the injection of heparin at a dose of 200U/10 g body weight, the mouse was anesthetized by inhalation of isoflurane vapor and subjected to cervical dislocation upon the cessation of respiration. Thoracotomy was immediately performed and the heart excised. The heart was arrested in ice-cold Krebs-Henseleit (KH) buffer (in mM: 25 NaHCO3, 0.5 EDTA, 5.3 KCl, 1.2 MgSO4, 0.5 pyruvate, 118 NaCl, 10 glucose, 2.5 CaCl2). The aorta was isolated and cannulated in a Langendorff perfusion system. The heart was then perfused at a constant pressure of 75 mmHg with KH buffer, which was continually bubbled with 5% CO2/95% O2 at 37° C. Effluent from the Thebesian veins was drained by a thin polyethylene tube (PE-10) pierced through the apex of the LV. A water-filled balloon made of polyvinylchloride film was inserted in the LV and connected to a blood pressure transducer (Harvard Apparatus, 733866, MA). After a 30-minute stabilization period, a balloon volume (BV) generating an LV end-diastolic-pressure (EDP) of 0 mmHg, was determined for the heart. The BV was then increased stepwise up through 1, 2, 5, 8, 10, 12, 15, 18, 20, 25, 30 μl increments of 1-5 μl and contractile performance were recorded for 10 seconds at each step. The indexes of cardiac function were amplified by a Transducer Amplifier Module (Harvard Apparatus, 730065, MA). Data was recorded and analyzed using PowerLab 4/35 (ADInstruments, PL3504, CO) and LabChart V7 (ADInstruments, CO). The BV was then adjusted to set EDP at about 8-10 mmHg and held constant during the ensuing steps of the protocol. Baseline function (determined by EDP at about 8-10 mmHg) was recorded for 5 minutes. The perfused beating heart were then treated with freshly prepared peptide stocks (0.2 mM), which were infused using syringe pump (Kent Sci, CT) into the perfusion buffer in a mixing chamber above the heart at 5% of coronary flow rate, to deliver final concentrations of 10-50 μM or equivalent vehicle for 20 minutes. At the end of the peptide infusion period hearts were subjected to global, no-flow normothermic ischemia by turning off the perfusion flow for 20 min, followed by a reperfusion phase for 40 min. BV was retaken through the stepwise sequence of 1-5 μl increments between 1 and 30 μl, with contractile performance again being recorded for 10 seconds at each step. Cardiac LV function was recorded throughout the procedure. In the case of post-ischemic treatment with alpha CT11 peptide, peptide infusion was begun at the initiation of the reperfusion phase, continued for 20 minutes and then contractile function by BV increments was taken as per the other hearts. A set of hearts were freeze-clamped immediately after peptide infusion for Western blotting. The protocol is illustrated in FIG. 9.

[2] = system: Neonatal cardiac fibroblasts (NHFs); experiment: Collagen synthesis by neonatal cardiac fibroblasts, Western blotting; assay type: cell-based, rat; conditions: 90 μM
Text: Isolation and treatment of Neonatal Cardiac Fibroblasts with Cx43 based peptides (peptides used included ACT1, JM1, JM2, Antennapedia [ANT], reverse ACT1 [Rev], poly Arginine [poly r]). Said peptides with and without internalization vectors can be loaded into the provided EVs and can elicit results similar to those observed for naked peptide as follows. Neonatal cardiac fibroblasts (NHFs) were isolated from 3-4 day old rat hearts by collagenase digestion (100 U/mL) and differential attachment as previously described (Borg et ah, 1984). […]
Protein Isolation and Examination of Collagen Synthesis by Western Blotting. […] Protein concentrations of cell lysates were determined using a Micro BCA assay (Pierce). […] The presence of collagen was determined by probing the membranes with a rabbit anti-mouse collagen type I antibody (MD Biosciences) at 1:20,000 dilution in blocking buffer (5% milk in Tris-buffered saline) followed by a goat anti-rabbit IgG horseradish peroxidase conjugated antibody at 1:100,000 (Southern Biotech Associates) and detection with Pierce SuperSignal Femto West detection reagent (Pierce). […] NHFs were treated with various concentrations of JM1, JM2, ACT1, and ANT (Antennapedia) peptides, vehicle (water) or left untreated and the production of collagen both in the culture media and cell-associated collagen assessed by western blotting. […]

[3] = biological target: T1, PKC-ε phosphorylation of Cx43-CT substrate at Ser368 (Rattus norvegicus, UniProt P08050); experiment: PKC-ε Cx43 CT S368 phosphorylation assay; assay type: biochemical; conditions: peptides at 20 μM
T1 construct: substrate (Cx43-CT: amino acids 255 to 382); GST (N); made in house; host or cells: E. coli BL21 (Cx43 CT); PKC-ε purchased (Life, 37717L)
Procedure: PKC assay conditions were used to evaluate the PKC-ε phosphorylation of Cx43-CT substrate at Ser368 as we have described previously, with modifications 11. 400 ng/ml […] (Life, 37717L, Carlsbad, CA) was pre-diluted in enzyme dilution buffer (10 mM HEPES pH7.4, 0.01% CHAPS and 5 mM DTT) and assayed in 20 mM HEPES pH7.4, 10 mM/L MgCl2, 0.1 mM EGTA, 1× lipid mix (200 μg/ml phosphatidylserine (Avanti Polar Lipids 840032C),^20 μg/ml Diacylglycerol (Avanti Polar Lipids), 1 mM HEPES pH7.4, 0.03% CHAPS), 500 µM ATP (Sigma, A6419) and 14 μg/ml Cx43-CT substrate. Kinase assay buffer was supplemented with peptides to produce final concentrations of the reaction constituents, as indicated in figure legends. The mixture was incubated at 37° C. for 12 minutes and quenched by addition of LDS sample loading buffer (Bio Rad, 1610791). “XT sample buffer” is what was shown on the product label, whereas the component is similar as regular LDS buffer, containing about 5-10% lithium dodecyl sulphate. The reaction was Western blotted for pS368 Cx43 using the Phospho-Connexin43 (Ser368) antibody from Cell Signaling. Proteins were eluted off by stripping buffer (Millipore 2504) and re-probed for total Cx43 using the Sigma anti-rabbit antibody. Percent phosphorylation (% P) was quantified using Equation 1 and normalized with control group (PKC+, no peptide added).

[4] = system: Cx43 S368 phosphorylation; experiment: Western blot of Cx43-pS368 in peptide-infused LV; parameters: species or system mouse; conditions: peptide infused 20 minutes; relative to vehicle control
Procedure: Protein samples from all related experiments (PKC and EDC cross-linking assays and Westerns on heart lysates) were processed in lithium dodecyl sulfate sample loading buffer (Bio-Rad, 1610737 CA), heated at 95° C. for 5 minutes. Samples from PKC and cross-linking assays were loaded on 18% Tris-Glycine Stain-Free gels (Bio-Rad, 5678073 CA); samples from heart lysates were loaded on 10% Tris-Glycine Stain-Free el (Bio-Rad: 5678033 CA), resolved by SDS-PAGE, transferred to PVDF FL membrane on a Turbo Transfer System (Bio-Rad, 1704155 CA). alpha CT1 eluted from cross-linking reactions was detected on blots against biotin with HRP-NeutrAvidin (ThermoFisher, 31001, MA). Signals were detected by HR-based chemiluminescence (ThermoFisher, 34095, MA) and exposed to ECL Chemidoc (Bio-Rad, 1708280 CA) and digitized using Image Lab software (Bio-Rad, 1709692 CA). […]
Male, 3-month-old, body weight 25±5 g C57BL/6 mice were used for this study and obtained from Charles River. Animals were randomly assigned to experimental groups and Left ventricular (LV) function was measured and myocardial ischemia-reperfusion injury (I/R) was induced as previously described^23. […] After a 30-minute stabilization period, a balloon volume (BV) generating an LV end-diastolic-pressure (EDP) of 0 mmHg, was determined for the heart. […] Baseline function (determined by EDP at about 8-10 mmHg) was recorded for 5 minutes. […]

[5] = system: myocardial infarction; experiment: In vivo myocardial infarction model; parameters: species or system mouse
[6] = system: wedge preparations of ventricular tissue; experiment: Ventricular wedge preparations, low flow ischemia

## RPRPDDLE [alpha CT11-I]
[1]
  recovery of LV contractile function: 5-6 times

## VFFKGVKDRVKGRSD [JM2]
[2]
  reduction in mature type I collagen compared to ACT 1: > 50%

## RPRPDDLEI [alpha CT11, RPRPDDLEI]
[3]
  Cx43 S368 phosphorylation: robustly upregulated pS368 levels over control
[1]; 20-minute peptide infusion at initiation of reperfusion (post-ischemic)
  recovery of LV function: significantly improve recovery of both systolic
[1]; ex vivo I/R injury
  cardiac muscle loss: reduce cardiac muscle loss by more than half
[1]; pre-ischemic 20-minute peptide infusion, 20 min ischemia, 40 min reperfusion
  recovery of LV contractile performance during reperfusion: significant functional recovery after I/R injury; also recorded: significantly exceeds that of alpha CT1 or alpha CT1-I
[1]
  recovery of LV contractile function: 5-6 times
[4]
  Cx43 pS368 in LV samples: significant increases in phosphorylation
[5]; IP about 400 micrograms within 10 minutes of reperfusion, 24 hours post-MI
  reduction of infarct size: about 48%
[5]; post-infarction treatment
  ventricular ejection fraction: significantly improve ventricular ejection fraction
[6]
  wedges displaying discordant alternans: none of the alpha CT11-treated wedges did

## VFFKGVKDRV [JM1]
[2]
  reduction in mature type I collagen compared to ACT 1: > 50%
